No constants are given. Whether binding was seen depends on the method and setting. Binding seen in cells or lysates may run through a third protein. Some entries that bind do so weakly or less than the wild type. Where a sequence is shown, tags or fusion partners need not be part of it.

By UniProt entry, the sequences of proteins in these tests, tags left out.
UniProt Q14457: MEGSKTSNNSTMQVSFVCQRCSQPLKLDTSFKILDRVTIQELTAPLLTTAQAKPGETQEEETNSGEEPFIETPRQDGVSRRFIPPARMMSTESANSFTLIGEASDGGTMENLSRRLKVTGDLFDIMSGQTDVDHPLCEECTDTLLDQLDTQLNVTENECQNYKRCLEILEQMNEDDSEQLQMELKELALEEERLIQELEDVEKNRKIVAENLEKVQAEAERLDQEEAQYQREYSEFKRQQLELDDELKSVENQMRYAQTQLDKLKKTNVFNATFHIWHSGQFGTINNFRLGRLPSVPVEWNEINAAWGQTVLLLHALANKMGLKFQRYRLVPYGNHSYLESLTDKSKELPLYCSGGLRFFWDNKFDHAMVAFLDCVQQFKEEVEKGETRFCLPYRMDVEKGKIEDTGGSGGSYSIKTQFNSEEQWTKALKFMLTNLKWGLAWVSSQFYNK

This passage reports binding results from paper PMC8776853.

For experiment [1], the target named is T1, FLAG-PGK1 (UniProt P00558).
T1 sequence: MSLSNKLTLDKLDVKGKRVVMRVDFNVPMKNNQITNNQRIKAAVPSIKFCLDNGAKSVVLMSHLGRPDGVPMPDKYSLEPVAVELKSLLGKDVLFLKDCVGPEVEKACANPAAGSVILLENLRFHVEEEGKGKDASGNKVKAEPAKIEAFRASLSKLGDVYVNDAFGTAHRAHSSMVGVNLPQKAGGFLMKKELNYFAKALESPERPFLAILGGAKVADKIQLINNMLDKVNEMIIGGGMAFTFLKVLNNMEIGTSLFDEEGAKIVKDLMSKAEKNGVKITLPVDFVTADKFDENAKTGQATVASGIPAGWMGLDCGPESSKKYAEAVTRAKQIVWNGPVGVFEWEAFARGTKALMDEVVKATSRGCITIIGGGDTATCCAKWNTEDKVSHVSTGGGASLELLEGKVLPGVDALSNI
Briefly: co-IP; PGK1-overexpressing cells under normal (21%) or lower (1%) oxygen for 24 h, or hypoxia 24 h then normoxia 6 h; precipitation of PGK1, Western blotting for PRAS40 and Beclin1.

The target in experiment [2] is T1, FLAG-PGK1. Briefly: co-IP; FLAG-PGK1 and Myc-PRAS40 co-transfected into HEK293T cells; anti-FLAG precipitation, 4 °C overnight, Western blotting.

In the case of “Beclin1, endogenous (from UniProt Q14457 1-450)”, the binding result in experiment [1] is recorded as “binds”.

For the substance “PRAS40, endogenous (from UniProt Q96B36 1-256)”, the binding entry in experiment [1] was “binds”.

On to Myc-PRAS40 (from UniProt Q96B36 1-256), for which the binding result in experiment [2] is recorded as “binds”.
